Experimental data taken from publication doi:10.1101/2021.10.14.464355.
Results are given in words; binding and its absence hold for the method and conditions named. Binding seen in cells or lysates may run through a third protein. Some entries that bind do so weakly or less than the wild type.

Sequences of proteins named here, by UniProt entry; tags and fusion partners are left off. A change or cut given only in a name is not applied to a line headed by its entry. A line that says so, or that is headed by a name, gives the form on record, which may keep a tag or linker.
UniProt P40337: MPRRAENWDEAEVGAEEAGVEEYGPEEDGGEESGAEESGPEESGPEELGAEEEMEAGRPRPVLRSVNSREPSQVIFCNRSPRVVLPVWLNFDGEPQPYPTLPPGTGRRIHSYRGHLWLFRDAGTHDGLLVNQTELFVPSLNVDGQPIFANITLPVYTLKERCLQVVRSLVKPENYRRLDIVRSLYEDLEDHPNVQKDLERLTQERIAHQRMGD
UniProt Q9NQB0: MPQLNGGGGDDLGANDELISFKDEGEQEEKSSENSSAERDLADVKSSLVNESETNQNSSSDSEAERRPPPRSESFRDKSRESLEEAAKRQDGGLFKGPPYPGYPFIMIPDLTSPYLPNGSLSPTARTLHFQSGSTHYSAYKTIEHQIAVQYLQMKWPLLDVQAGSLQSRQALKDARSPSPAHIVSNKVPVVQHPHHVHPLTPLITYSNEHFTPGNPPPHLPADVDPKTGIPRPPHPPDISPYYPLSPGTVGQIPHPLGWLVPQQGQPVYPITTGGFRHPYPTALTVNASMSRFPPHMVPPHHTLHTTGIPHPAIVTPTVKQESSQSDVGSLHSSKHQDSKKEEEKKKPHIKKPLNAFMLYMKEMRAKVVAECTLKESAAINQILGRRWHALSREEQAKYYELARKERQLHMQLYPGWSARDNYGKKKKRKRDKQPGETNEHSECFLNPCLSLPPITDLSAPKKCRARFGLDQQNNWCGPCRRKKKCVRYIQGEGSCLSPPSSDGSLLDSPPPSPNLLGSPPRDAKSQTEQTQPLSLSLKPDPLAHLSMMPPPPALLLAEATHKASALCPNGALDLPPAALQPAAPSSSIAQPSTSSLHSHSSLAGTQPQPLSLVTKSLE
endogenous TCF7L2 (human (endogenous in HEK293T)) (Q9NQB0-7, form named): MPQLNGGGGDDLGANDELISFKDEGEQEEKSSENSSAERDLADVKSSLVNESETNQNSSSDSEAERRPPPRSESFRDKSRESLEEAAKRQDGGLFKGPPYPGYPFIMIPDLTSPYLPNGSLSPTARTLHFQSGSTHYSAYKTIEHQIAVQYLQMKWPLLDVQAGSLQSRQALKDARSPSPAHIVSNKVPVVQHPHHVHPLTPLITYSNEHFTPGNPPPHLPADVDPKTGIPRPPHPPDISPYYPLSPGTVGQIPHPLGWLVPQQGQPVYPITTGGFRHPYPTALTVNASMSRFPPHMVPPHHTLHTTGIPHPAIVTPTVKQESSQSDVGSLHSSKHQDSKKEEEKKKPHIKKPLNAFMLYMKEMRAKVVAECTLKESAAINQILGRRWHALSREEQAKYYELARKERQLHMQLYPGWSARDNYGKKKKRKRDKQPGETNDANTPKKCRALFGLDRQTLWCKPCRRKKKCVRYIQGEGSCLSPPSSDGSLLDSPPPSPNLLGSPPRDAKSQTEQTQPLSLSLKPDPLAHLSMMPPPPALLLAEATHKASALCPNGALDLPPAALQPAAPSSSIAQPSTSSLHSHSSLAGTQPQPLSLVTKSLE
UniProt P55036: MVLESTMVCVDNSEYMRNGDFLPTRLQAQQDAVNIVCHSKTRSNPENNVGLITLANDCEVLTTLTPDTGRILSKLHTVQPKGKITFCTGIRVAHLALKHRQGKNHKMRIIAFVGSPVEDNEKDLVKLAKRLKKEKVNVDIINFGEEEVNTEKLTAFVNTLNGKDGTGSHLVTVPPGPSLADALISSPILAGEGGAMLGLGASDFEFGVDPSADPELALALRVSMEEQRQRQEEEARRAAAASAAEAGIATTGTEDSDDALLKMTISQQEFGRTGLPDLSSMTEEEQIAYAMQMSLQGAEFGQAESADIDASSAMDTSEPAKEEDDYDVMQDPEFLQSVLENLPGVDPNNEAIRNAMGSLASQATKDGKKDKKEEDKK

Columns and labels:
[1] = biological target: Flag-pVHL (pCS2-Flag-pVHL) (human) (UniProt P40337); test: co-IP
[2] = biological target: GST-pVHL (glutathione-S-transferase-pVHL, pGEX-2T-pVHL) (human) (UniProt P40337); test: pull-down
[3] = biological target: endogenous TCF7L2 (human (endogenous in HEK293T)) (UniProt Q9NQB0); test: co-IP
[4] = biological target: TCF7L2 wild type (construct of the domain mapping) (UniProt Q9NQB0); test: co-IP

Substance: endogenous 19S regulatory subunit RPN10 (from UniProt P55036 1-377)
- binding [1]: binds

Substance: endogenous TCF7L2 (from UniProt Q9NQB0-7 1-602)
- binding [2]: binds

Substance: endogenous pVHL (von Hippel-Lindau protein) (from UniProt P40337 1-213)
- binding [3]: binds

Substance: pVHL (in the co-IP that maps the TCF7L2 domains) (from UniProt P40337 1-213)
- binding [4]: binds
